Test results as given in paper PMC5175275.
These are yes or no findings as the source states them, for the method shown. For part of these data: In cells and extracts the contact can be indirect. Some entries that bind do so weakly or less than the wild type. For part of these data: Sequences can lack the tags named with a protein. Blank lines part the entries; values can stand above or below the binder they belong to.

What was measured:
[1] = biological target: T1, full-length Isl1 (bait in pGBKT7) (UniProt P61372); experiment: two-hybrid; retest: single bait and prey plasmids cotransformed into Yeast Gold; clones patched onto DDO/X/A and QDO/X/A medium
T1 sequence: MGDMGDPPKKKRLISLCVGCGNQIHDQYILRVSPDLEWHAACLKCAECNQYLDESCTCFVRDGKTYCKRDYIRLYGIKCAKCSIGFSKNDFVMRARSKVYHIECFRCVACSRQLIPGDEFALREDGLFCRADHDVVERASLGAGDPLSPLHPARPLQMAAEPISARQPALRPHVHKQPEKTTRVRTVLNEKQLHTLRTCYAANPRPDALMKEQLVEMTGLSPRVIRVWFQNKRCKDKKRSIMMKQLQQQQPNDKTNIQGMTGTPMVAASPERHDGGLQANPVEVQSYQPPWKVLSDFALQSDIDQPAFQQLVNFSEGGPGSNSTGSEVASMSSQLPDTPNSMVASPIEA

HA epitope-tagged Isl1 = biological target: T2, HA epitope-tagged Isl1 (UniProt P61372); experiment: co-IP; 293FT cells transfected with pXJ40-HA-Isl1 and/or pXJ40-MYC-PIASy, harvested after 48 hours; nondenaturing lysis buffer; lysate with anti-HA or anti-MYC agarose beads at 4 °C overnight; blot with anti-MYC or anti-HA
T2 sequence: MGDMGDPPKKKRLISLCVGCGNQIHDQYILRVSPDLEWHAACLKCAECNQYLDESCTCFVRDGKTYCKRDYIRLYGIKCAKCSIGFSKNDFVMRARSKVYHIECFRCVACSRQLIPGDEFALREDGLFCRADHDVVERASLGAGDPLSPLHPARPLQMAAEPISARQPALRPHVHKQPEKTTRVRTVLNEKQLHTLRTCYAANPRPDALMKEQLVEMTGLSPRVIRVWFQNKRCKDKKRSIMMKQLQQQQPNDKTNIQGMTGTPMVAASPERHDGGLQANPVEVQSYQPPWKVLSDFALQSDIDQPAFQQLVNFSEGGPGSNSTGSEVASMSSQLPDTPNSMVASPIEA

[2] = biological target: T3, MYC epitope-tagged PIASy (mouse) (UniProt Q9JM05); experiment: as above
T3 sequence: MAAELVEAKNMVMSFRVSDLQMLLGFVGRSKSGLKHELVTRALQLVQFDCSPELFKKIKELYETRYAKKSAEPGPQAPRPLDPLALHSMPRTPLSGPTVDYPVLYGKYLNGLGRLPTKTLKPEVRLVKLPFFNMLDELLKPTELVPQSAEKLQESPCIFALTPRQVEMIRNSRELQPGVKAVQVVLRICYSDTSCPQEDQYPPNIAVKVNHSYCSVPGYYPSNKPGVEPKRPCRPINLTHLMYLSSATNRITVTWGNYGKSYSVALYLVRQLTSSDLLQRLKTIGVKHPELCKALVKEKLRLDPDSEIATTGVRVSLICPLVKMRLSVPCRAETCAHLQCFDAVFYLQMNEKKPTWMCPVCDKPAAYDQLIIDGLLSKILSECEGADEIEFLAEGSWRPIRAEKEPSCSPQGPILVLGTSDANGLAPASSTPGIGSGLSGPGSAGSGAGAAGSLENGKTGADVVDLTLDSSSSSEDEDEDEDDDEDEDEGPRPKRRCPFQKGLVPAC

binding [1]: binds
B1: protein inhibitor of activated STAT Y (PIASy), prey in pGADT7 (protein, UniProt Q9JM05 1-507)
chain: MAAELVEAKNMVMSFRVSDLQMLLGFVGRSKSGLKHELVTRALQLVQFDCSPELFKKIKELYETRYAKKSAEPGPQAPRPLDPLALHSMPRTPLSGPTVDYPVLYGKYLNGLGRLPTKTLKPEVRLVKLPFFNMLDELLKPTELVPQSAEKLQESPCIFALTPRQVEMIRNSRELQPGVKAVQVVLRICYSDTSCPQEDQYPPNIAVKVNHSYCSVPGYYPSNKPGVEPKRPCRPINLTHLMYLSSATNRITVTWGNYGKSYSVALYLVRQLTSSDLLQRLKTIGVKHPELCKALVKEKLRLDPDSEIATTGVRVSLICPLVKMRLSVPCRAETCAHLQCFDAVFYLQMNEKKPTWMCPVCDKPAAYDQLIIDGLLSKILSECEGADEIEFLAEGSWRPIRAEKEPSCSPQGPILVLGTSDANGLAPASSTPGIGSGLSGPGSAGSGAGAAGSLENGKTGADVVDLTLDSSSSSEDEDEDEDDDEDEDEGPRPKRRCPFQKGLVPAC

binding (HA epitope-tagged Isl1): binds
B2: MYC epitope-tagged PIASy (protein, UniProt Q9JM05 1-507)
chain: MAAELVEAKNMVMSFRVSDLQMLLGFVGRSKSGLKHELVTRALQLVQFDCSPELFKKIKELYETRYAKKSAEPGPQAPRPLDPLALHSMPRTPLSGPTVDYPVLYGKYLNGLGRLPTKTLKPEVRLVKLPFFNMLDELLKPTELVPQSAEKLQESPCIFALTPRQVEMIRNSRELQPGVKAVQVVLRICYSDTSCPQEDQYPPNIAVKVNHSYCSVPGYYPSNKPGVEPKRPCRPINLTHLMYLSSATNRITVTWGNYGKSYSVALYLVRQLTSSDLLQRLKTIGVKHPELCKALVKEKLRLDPDSEIATTGVRVSLICPLVKMRLSVPCRAETCAHLQCFDAVFYLQMNEKKPTWMCPVCDKPAAYDQLIIDGLLSKILSECEGADEIEFLAEGSWRPIRAEKEPSCSPQGPILVLGTSDANGLAPASSTPGIGSGLSGPGSAGSGAGAAGSLENGKTGADVVDLTLDSSSSSEDEDEDEDDDEDEDEGPRPKRRCPFQKGLVPAC

binding [2]: binds
B3: HA epitope-tagged Isl1 (protein, UniProt P61372 1-349)
chain: MGDMGDPPKKKRLISLCVGCGNQIHDQYILRVSPDLEWHAACLKCAECNQYLDESCTCFVRDGKTYCKRDYIRLYGIKCAKCSIGFSKNDFVMRARSKVYHIECFRCVACSRQLIPGDEFALREDGLFCRADHDVVERASLGAGDPLSPLHPARPLQMAAEPISARQPALRPHVHKQPEKTTRVRTVLNEKQLHTLRTCYAANPRPDALMKEQLVEMTGLSPRVIRVWFQNKRCKDKKRSIMMKQLQQQQPNDKTNIQGMTGTPMVAASPERHDGGLQANPVEVQSYQPPWKVLSDFALQSDIDQPAFQQLVNFSEGGPGSNSTGSEVASMSSQLPDTPNSMVASPIEA
